Results deposited as PubChem BioAssay AID1053208 (Peter MacCallum Cancer Centre, 2014).
Here is an unselected part of about 17,000 reagents tested. 788 of them (4.7%) were called active. 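Calls rest on z-score classes alone; an extra cut-off of viability at most 70% of control was not applied to them.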 Unmarked entries are inactive. Reagents against one gene are numbered here. A reagent listed more than once was tested more than once; the source does not tell the runs apart. Not all columns of the deposit are shown.

Aim: 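Genes whose silencing cuts survival of bone tumour cells only with doxorubicin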 (primary screen)
Cells: mouse osteosarcoma cells, early-passage culture from an engineered mouse model of fibroblastic bone tumour
Knock-down reagent: siRNA pool against mouse genes, 40 nM
Timing: about 120 h (48 h before drug, then 72 h with drug)
Challenge: doxorubicin 100 nM for 72 h, roughly 30-40% inhibitory dose
Measurement: 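Luminescent ATP signal taken as viability with or without 100 nM doxorubicin for 72 h; mean of two wells set against non-targeting siRNA and turned into robust z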
Direction: viability z-score with doxorubicin: higher = more viable cells under doxorubicin; viability z-score without drug: higher = more viable cells with knock-down alone
Call rule: 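Called active if knock-down leaves viability unchanged without drug (z within -2 to 2) but lowers it with doxorubicin (z at or under -2)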

no.	Gene	pool no.	combined z-score class	viability z-score with doxorubicin	viability z-score without drug
1	Cux1 (cut-like homeobox 1)	1	no change with or without drug	0.34	-0.51
2	Wars2 (tryptophanyl tRNA synthetase 2 (mitochondrial))	1	no change with or without drug	1.8	1.18
3	Stk35 (serine/threonine kinase 35)	1	no change with or without drug	0.67	1.35
4	Stk35 (serine/threonine kinase 35)	1	no change with or without drug	-0.22	-1.18
5	Srp68 (signal recognition particle 68)	1	no change with or without drug	0.67	1.52
6	Lpgat1 (lysophosphatidylglycerol acyltransferase 1)	1	no change with or without drug	-0.79	-1.52
7	A630012P03Rik (RIKEN cDNA A630012P03 gene)	1	no change with or without drug	0.45	-0.84
8	Ndel1 (nudE neurodevelopment protein 1 like 1)	1	no change with or without drug	0.67	0.84
9	Eya3 (EYA transcriptional coactivator and phosphatase 3)	1	no change with or without drug	0.11	-0.51
10	Klra9 (killer cell lectin-like receptor subfamily A, member 9)	1	no change with or without drug	-0.22	1.52
11	Edar (ectodysplasin-A receptor)	1	no change with or without drug	0.45	0.17
12	Mc3r (melanocortin 3 receptor)	1	no change with or without drug	0.22	0.84
13	Opn1sw	1	no change with or without drug	0.67	-1.52
14	Actr3 (ARP3 actin-related protein 3)	1	no change with or without drug	-0.45	-1.18
15	Tspan4 (tetraspanin 4)	1	no change with or without drug	0.56	0.51
16	Zfp280d (zinc finger protein 280D)	1	no change with or without drug	-0.11	-0.84
17	Mmel1 (membrane metalloendopeptidase like 1)	1	high cell count with doxorubicin only	2.36	1.18
18	Atp8b5 (ATPase, class I, type 8B, member 5)	1	low cell count with doxorubicin only (active)	-2.14	0.34
19	Aplp1 (amyloid beta precursor like protein 1)	1	no change with or without drug	-0.22	0.51
20	Sertad4 (SERTA domain containing 4)	1	no change with or without drug	0.22	-0.51
21	Fbxl15 (F-box and leucine-rich repeat protein 15)	1	no change with or without drug	0.67	0.17
22	Arl16 (ADP-ribosylation factor-like 16)	1	high cell count without drug only	1.8	2.87
23	Tet3 (tet methylcytosine dioxygenase 3)	1	high cell count without drug only	-1.46	2.7
24	Pcnx2 (pecanex homolog 2)	1	no change with or without drug	0.34	-0.17
25	Pcnx2 (pecanex homolog 2)	2	no change with or without drug	0.79	0.51
26	Gnao1 (guanine nucleotide binding protein, alpha O)	1	low cell count with doxorubicin only (active)	-2.25	0.67
27	Nopchap1 (NOP protein chaperone 1)	1	no change with or without drug	0.34	0.84
28	Abca9 (ATP-binding cassette, sub-family A member 9)	1	no change with or without drug	0.11	-0.34
29	Dab2 (disabled 2, mitogen-responsive phosphoprotein)	1	no change with or without drug	0.45	0.17
30	Dab2 (disabled 2, mitogen-responsive phosphoprotein)	2	no change with or without drug	0.67	0.67
31	Impa1 (inositol (myo)-1(or 4)-monophosphatase 1)	1	no change with or without drug	-0.79	0.51
32	Dpp9 (dipeptidylpeptidase 9)	1	no change with or without drug	-0.67	1.01
33	Brinp1	1	high cell count without drug only	0	2.19
34	Cops6 (COP9 signalosome subunit 6)	1	no change with or without drug	-0.22	0.51
35	Vmn1r217 (vomeronasal 1 receptor 217)	1	high cell count with doxorubicin only	2.25	1.69
36	Itga2b (integrin alpha 2b)	1	no change with or without drug	-0.22	-1.35
37	Or10x4 (olfactory receptor family 10 subfamily X member 4)	1	high cell count without drug only	1.46	2.02
38	Sfi1 (Sfi1 homolog, spindle assembly associated (yeast))	1	low cell count with doxorubicin only (active)	-2.36	0.17
39	Tmed6 (transmembrane p24 trafficking protein 6)	1	high cell count without drug only	-0.22	3.54
40	Spats2 (spermatogenesis associated, serine-rich 2)	1	low cell count without drug only	-0.9	-2.02
41	Sds (serine dehydratase)	1	high cell count with and without drug	3.93	2.87
42	Fhip2a (FHF complex subunit HOOK interacting protein 2A)	1	no change with or without drug	0.9	-0.17
43	Chrng (cholinergic receptor, nicotinic, gamma polypeptide)	1	no change with or without drug	-0.11	-0.17
44	Garin5b (golgi associated RAB2 interactor family member 5B)	1	no change with or without drug	-0.22	-1.85
45	Rpl41 (ribosomal protein L41)	1	no change with or without drug	-0.45	0.67
46	Gprc5b (G protein-coupled receptor, family C, group 5, member B)	1	no change with or without drug	1.35	1.35
47	Epc1 (enhancer of polycomb homolog 1)	1	low cell count with doxorubicin only (active)	-2.47	0.67
48	Srsf4 (serine and arginine-rich splicing factor 4)	1	no change with or without drug	0.11	1.85
49	Rmdn2 (regulator of microtubule dynamics 2)	1	no change with or without drug	0.34	1.18
50	Ahcyl2 (S-adenosylhomocysteine hydrolase-like 2)	1	no change with or without drug	0.22	-0.17
